Some of the results follow.
Assays:
Assay in all cases: log2 fold change, soluble protein after heating vs DMSO (PISA); higher = thermal stabilisation; K562 cells, 10 uM, 30 min; active = over 0.2 and 3.5 SD of the protein, either way, in both replicates (recomputed)
[1] = compound: CS(=O)(=O)c1ccc(-c2cnc(N)c(C(=O)Nc3ccccc3)n2)cc1
Summary of the method: (§1)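 Soluble protein was quantified by TMTpro 16plex LC-MS/MS after channel sums were equalised. It was obtained as the supernatant after 21,000xg for 90 min from pooled aliquots of K562 cells (2×10^6 cells/mL, 10 μM compound, 30 min) heated for 3 min across 48°C-58°C and extracted in PBS with 0.5% NP-40 at 4°C. Thermal stability values are relative to control samples and come from duplicates. They are given as log2 fold changes.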

By UniProt entry, the sequences of proteins in these tests, tags left out. Where a name states a change or a piece, a line headed by the entry shows the natural chain unless it says otherwise.
UniProt Q68CR1: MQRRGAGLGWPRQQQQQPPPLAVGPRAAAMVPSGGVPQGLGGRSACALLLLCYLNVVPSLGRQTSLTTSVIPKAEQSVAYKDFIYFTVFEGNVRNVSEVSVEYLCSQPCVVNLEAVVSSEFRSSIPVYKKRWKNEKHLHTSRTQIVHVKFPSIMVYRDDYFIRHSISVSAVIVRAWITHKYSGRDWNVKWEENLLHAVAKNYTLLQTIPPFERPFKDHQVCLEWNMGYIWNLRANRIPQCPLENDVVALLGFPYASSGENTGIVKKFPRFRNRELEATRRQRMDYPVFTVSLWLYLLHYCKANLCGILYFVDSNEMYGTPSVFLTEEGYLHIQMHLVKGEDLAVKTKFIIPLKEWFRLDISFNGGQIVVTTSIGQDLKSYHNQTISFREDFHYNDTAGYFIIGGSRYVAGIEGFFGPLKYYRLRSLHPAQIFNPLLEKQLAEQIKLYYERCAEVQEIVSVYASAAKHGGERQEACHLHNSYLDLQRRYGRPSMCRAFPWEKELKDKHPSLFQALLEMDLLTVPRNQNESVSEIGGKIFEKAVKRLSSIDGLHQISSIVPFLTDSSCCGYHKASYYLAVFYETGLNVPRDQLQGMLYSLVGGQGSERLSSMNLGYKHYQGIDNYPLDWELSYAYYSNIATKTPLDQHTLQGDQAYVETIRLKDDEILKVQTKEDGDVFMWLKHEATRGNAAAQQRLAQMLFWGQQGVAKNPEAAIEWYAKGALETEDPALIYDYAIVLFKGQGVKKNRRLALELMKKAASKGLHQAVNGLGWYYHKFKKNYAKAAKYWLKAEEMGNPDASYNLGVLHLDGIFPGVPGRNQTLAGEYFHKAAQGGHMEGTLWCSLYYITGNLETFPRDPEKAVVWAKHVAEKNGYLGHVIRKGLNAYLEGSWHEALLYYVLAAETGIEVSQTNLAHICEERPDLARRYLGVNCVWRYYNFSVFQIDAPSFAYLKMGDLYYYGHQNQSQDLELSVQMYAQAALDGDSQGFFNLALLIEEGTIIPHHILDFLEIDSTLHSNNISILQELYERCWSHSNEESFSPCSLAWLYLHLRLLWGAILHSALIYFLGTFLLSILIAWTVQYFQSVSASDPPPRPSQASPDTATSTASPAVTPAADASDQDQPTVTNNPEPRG
UniProt Q9Y371: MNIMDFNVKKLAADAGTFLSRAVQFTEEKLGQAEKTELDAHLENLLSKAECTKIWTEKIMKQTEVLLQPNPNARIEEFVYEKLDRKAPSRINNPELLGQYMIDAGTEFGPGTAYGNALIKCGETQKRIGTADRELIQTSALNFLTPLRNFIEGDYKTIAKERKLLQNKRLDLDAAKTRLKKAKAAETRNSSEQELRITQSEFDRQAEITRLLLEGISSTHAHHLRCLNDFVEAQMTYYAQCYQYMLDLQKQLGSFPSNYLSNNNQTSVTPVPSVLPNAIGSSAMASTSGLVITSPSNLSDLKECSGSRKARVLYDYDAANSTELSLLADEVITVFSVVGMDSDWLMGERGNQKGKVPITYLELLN
UniProt Q99442: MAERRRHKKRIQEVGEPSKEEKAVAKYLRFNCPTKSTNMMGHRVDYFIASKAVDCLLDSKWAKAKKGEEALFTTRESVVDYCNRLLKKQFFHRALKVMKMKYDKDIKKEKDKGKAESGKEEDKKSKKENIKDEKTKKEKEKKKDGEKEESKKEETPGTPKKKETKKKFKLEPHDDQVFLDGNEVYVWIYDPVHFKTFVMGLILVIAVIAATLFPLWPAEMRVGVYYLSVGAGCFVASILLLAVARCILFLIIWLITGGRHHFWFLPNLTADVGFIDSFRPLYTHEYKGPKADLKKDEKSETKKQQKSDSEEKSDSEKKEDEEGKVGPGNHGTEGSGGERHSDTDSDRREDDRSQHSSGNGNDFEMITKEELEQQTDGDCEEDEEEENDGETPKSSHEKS
UniProt Q6P4A7: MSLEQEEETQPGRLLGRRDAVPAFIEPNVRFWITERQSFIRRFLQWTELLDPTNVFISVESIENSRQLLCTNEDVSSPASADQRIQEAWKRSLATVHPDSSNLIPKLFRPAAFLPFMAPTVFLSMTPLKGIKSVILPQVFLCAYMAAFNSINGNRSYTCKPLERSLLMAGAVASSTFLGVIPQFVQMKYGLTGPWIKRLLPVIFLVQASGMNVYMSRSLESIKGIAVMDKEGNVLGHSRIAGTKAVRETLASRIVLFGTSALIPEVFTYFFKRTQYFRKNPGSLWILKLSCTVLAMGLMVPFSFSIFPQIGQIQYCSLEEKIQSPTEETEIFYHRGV
UniProt Q15427: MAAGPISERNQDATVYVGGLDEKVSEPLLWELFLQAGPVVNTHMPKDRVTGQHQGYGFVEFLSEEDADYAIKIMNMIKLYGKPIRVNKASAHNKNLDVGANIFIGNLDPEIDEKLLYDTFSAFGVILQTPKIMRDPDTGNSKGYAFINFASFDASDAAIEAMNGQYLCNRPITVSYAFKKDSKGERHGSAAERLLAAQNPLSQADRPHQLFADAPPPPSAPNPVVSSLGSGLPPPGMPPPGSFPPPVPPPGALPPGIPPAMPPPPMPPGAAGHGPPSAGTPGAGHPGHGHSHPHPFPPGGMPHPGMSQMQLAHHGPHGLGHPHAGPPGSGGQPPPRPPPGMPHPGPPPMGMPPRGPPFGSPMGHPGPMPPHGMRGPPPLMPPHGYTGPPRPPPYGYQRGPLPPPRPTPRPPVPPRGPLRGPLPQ
UniProt Q9C0C4, whole entry, looked up: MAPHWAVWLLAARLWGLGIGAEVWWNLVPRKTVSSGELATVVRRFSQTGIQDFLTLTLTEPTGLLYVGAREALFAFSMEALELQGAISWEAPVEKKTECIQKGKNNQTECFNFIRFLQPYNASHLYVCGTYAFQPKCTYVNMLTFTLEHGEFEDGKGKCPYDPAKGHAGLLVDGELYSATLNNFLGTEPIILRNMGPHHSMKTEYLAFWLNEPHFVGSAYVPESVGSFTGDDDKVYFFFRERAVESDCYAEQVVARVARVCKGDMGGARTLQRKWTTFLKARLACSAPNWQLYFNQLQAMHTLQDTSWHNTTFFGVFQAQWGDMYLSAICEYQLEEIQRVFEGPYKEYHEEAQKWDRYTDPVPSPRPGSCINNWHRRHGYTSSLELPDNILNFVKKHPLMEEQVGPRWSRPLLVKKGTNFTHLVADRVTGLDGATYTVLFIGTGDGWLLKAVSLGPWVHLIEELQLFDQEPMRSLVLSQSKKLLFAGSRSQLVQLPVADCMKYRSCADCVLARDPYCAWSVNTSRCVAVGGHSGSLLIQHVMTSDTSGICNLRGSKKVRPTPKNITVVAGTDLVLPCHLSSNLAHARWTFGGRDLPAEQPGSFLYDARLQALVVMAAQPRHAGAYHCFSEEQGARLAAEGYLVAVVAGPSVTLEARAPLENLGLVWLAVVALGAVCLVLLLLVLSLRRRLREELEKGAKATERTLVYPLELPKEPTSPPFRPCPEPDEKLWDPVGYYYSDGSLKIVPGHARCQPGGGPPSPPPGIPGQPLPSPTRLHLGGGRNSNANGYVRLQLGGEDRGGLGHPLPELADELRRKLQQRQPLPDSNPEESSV
UniProt P08697: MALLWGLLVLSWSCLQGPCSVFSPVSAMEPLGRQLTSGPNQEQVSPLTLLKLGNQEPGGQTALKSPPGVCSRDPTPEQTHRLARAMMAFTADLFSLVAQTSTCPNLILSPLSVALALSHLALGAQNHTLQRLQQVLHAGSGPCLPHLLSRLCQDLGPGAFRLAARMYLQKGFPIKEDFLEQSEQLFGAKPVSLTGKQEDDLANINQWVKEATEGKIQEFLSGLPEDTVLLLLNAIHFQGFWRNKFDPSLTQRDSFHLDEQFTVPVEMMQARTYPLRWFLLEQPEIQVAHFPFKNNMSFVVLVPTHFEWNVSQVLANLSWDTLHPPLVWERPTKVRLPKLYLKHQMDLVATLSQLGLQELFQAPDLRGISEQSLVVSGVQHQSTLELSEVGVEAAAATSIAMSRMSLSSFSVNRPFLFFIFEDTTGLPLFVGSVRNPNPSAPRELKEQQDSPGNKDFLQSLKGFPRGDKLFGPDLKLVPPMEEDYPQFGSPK
UniProt Q12874: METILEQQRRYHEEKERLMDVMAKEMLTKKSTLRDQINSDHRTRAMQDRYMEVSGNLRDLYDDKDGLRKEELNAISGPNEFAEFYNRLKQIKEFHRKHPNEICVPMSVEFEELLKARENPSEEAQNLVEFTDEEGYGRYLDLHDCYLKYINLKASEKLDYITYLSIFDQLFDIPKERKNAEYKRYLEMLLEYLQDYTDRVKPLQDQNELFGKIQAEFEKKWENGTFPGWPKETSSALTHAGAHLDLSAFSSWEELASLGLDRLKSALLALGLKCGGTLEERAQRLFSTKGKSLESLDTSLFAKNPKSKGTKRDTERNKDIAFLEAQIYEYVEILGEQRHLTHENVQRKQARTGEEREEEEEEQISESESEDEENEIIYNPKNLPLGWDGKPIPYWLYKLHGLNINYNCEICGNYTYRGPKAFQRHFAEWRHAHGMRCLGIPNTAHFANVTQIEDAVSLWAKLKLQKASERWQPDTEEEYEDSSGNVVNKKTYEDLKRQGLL
UniProt Q15393: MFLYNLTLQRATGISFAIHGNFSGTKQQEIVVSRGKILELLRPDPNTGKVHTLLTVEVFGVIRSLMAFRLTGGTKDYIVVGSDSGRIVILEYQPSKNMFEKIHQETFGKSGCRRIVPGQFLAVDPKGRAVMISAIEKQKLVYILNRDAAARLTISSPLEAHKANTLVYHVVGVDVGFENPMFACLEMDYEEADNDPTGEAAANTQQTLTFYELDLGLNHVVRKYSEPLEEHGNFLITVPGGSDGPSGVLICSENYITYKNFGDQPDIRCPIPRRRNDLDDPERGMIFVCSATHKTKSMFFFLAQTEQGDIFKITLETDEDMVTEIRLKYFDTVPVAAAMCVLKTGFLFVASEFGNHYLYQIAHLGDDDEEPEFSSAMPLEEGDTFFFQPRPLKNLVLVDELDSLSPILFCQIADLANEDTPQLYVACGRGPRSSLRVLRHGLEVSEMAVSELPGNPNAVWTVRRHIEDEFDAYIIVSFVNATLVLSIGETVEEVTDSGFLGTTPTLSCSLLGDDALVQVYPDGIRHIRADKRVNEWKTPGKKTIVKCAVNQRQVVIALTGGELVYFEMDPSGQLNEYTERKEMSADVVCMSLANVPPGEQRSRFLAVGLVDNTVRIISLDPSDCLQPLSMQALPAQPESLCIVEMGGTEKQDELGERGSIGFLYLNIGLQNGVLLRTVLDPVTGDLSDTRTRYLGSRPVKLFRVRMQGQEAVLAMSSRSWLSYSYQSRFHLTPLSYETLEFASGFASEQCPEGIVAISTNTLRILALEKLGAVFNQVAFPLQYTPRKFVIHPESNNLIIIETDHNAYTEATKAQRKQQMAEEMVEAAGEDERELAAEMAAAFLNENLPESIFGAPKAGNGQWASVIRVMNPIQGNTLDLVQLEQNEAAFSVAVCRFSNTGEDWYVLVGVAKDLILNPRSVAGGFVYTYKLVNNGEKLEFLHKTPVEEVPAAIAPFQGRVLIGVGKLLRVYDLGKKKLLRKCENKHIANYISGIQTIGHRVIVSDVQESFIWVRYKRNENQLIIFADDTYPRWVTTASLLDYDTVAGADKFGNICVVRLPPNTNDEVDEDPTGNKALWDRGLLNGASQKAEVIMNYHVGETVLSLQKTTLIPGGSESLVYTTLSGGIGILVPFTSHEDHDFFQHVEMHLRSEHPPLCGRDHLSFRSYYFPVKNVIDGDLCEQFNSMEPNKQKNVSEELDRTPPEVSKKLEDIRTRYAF
UniProt Q13435: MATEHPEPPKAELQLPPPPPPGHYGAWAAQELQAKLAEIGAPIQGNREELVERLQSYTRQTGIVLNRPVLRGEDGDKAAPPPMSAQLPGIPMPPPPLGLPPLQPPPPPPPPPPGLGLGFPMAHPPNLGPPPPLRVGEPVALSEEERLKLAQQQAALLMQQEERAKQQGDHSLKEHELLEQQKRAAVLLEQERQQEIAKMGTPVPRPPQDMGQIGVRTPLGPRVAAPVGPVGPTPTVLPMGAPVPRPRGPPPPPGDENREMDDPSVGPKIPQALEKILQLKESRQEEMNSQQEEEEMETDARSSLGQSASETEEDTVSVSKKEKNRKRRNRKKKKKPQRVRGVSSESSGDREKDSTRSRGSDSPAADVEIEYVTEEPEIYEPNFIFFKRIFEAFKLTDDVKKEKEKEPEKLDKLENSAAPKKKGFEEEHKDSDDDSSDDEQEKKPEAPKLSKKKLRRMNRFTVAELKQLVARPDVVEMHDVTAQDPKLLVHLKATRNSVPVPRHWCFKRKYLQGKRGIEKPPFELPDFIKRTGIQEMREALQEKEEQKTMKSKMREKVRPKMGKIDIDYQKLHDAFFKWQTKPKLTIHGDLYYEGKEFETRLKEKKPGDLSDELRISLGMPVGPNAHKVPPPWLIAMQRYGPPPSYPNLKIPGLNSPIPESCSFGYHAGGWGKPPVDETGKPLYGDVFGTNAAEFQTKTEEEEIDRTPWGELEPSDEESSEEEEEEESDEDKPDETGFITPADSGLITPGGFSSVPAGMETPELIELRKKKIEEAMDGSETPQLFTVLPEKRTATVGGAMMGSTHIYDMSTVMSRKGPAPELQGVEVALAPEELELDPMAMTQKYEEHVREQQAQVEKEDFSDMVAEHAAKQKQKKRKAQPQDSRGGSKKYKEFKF

crizotinib = compound: C[C@@H](Oc1cc(-c2cnn(C3CCNCC3)c2)cnc1N)c1c(Cl)ccc(F)c1Cl [crizotinib]
Summary of the method: as §1

[2] = compound: C[C@@H]1COCCN1C2=NC(=NC(=C2)C3(CC3)S(=O)(=O)C)C4=C5C=CNC5=CC=C4
Summary of the method: as §1

[3] = compound: C[C@H](C1=CC=C(C=C1)C(=O)NC2=C3C=CNC3=NC=C2)N
Summary of the method: as §1

duvelisib = compound: C[C@H](Nc1ncnc2nc[nH]c12)c1cc2cccc(Cl)c2c(=O)n1-c1ccccc1 [duvelisib]
Summary of the method: as §1

gandotinib = compound: Cc1cc(Nc2cc(CN3CCOCC3)c3nc(C)c(Cc4ccc(Cl)cc4F)n3n2)n[nH]1 [gandotinib]
Summary of the method: as §1

tozasertib = compound: Cc1cc(Nc2cc(N3CCN(C)CC3)nc(Sc3ccc(NC(=O)C4CC4)cc3)n2)n[nH]1 [tozasertib]
Summary of the method: as §1

[4] = compound: Cc1cc(SCc2sc(-c3ccc(C(F)(F)F)cc3)nc2C)ccc1OCC(=O)O
Summary of the method: as §1

doramapimod = compound: Cc1ccc(-n2nc(C(C)(C)C)cc2NC(=O)Nc2ccc(OCCN3CCOCC3)c3ccccc23)cc1 [doramapimod]
Summary of the method: as §1

ispinesib = compound: Cc1ccc(C(=O)N(CCCN)[C@@H](c2nc3cc(Cl)ccc3c(=O)n2Cc2ccccc2)C(C)C)cc1 [ispinesib]
Summary of the method: as §1

bafetinib = compound: Cc1ccc(NC(=O)c2ccc(CN3CC[C@H](N(C)C)C3)c(C(F)(F)F)c2)cc1Nc1nccc(-c2cncnc2)n1 [bafetinib]
Summary of the method: as §1

[5] = compound: Cc1cccc(CC(=O)N2CCc3c2ccc(-c2cn(C)c4ncnc(N)c24)c3F)n1
Summary of the method: as §1

nilotinib = compound: Cc1cn(-c2cc(NC(=O)c3ccc(C)c(Nc4nccc(-c5cccnc5)n4)c3)cc(C(F)(F)F)c2)cn1 [nilotinib]
Summary of the method: as §1

[6] = compound: Cc1nc(Nc2n[nH]c3c2CN(C(=O)N[C@H](CN(C)C)c2ccccc2)C3(C)C)c2sccc2n1
Summary of the method: as §1

dasatinib = compound: Cc1nc(Nc2ncc(C(=O)Nc3c(C)cccc3Cl)s2)cc(N2CCN(CCO)CC2)n1 [dasatinib]
Summary of the method: as §1

[7] = compound: Cc1ncc(-c2ccnc(Nc3ccc(S(C)(=O)=O)cc3)n2)n1C(C)C
Summary of the method: as §1

[8] = compound: Cn1cc(-c2ccc3c(c2)CCN3C(=O)Cc2cccc(C(F)(F)F)c2)c2c(N)ncnc21
Summary of the method: as §1

[9] = compound: Cn1cc(-c2ccc3nnc(C(F)(F)c4ccc5ncccc5c4)n3n2)cn1
Summary of the method: as §1

tipifarnib = compound: Cn1cncc1[C@@](N)(c1ccc(Cl)cc1)c1ccc2c(c1)c(-c1cccc(Cl)c1)cc(=O)n2C [tipifarnib]
Summary of the method: as §1

mubritinib = compound: FC(F)(F)c1ccc(/C=C/c2nc(COc3ccc(CCCCn4ccnn4)cc3)co2)cc1 [mubritinib]
Summary of the method: as §1

Measured: log2 fold change

SEL1L3 (UniProt Q68CR1)
inactive: [1] -0.045 | crizotinib -0.02 | [2] 0.001 | [3] 0.161 | duvelisib 0.007 | gandotinib 0.05 | tozasertib -0.035 | [4] 0.093 | doramapimod 0.019 | ispinesib -0.08 | bafetinib 0 | [5] 0.034 | nilotinib 0.02 | [6] 0.051 | dasatinib 0 | [7] -0.08 | [8] -0.049 | [9] -0.031 | tipifarnib 0.198 | mubritinib -0.05

SIKE1 (UniProt Q9BRV8)
inactive: [1] 0.048 | crizotinib 0.084 | [2] -0.09 | [3] -0.024 | duvelisib 0.098 | gandotinib 0.018 | tozasertib 0.011 | [4] 0.045 | doramapimod 0.019 | ispinesib -0.041 | bafetinib -0.031 | [5] 0.035 | nilotinib -0.126 | [6] -0.095 | dasatinib -0.061 | [7] -0.029 | [8] -0.009 | [9] -0.013 | tipifarnib 0.013 | mubritinib 0.06

SH3GLB1 isoform 2 (UniProt Q9Y371)
inactive: [1] 0.018 | crizotinib -0.222 | [2] -0.023 | [3] 0.043 | duvelisib -0.07 | gandotinib -0.147 | tozasertib -0.049 | [4] 0.176 | doramapimod 0.008 | ispinesib -0.307 | bafetinib -0.068 | [5] 0.095 | nilotinib 0.02 | [6] -0.191 | dasatinib -0.16 | [7] -0.068 | [8] 0.028 | [9] 0 | tipifarnib -0.082 | mubritinib 0.062

SEC62 (UniProt Q99442)
inactive: [1] 0.001 | crizotinib 0.103 | [2] -0.032 | [3] -0.049 | duvelisib -0.01 | gandotinib 0.012 | tozasertib -0.003 | [4] -0.007 | doramapimod -0.06 | ispinesib 0.088 | bafetinib -0.044 | [5] -0.007 | nilotinib 0.059 | [6] 0.063 | dasatinib 0.082 | [7] -0.017 | [8] 0.026 | [9] 0.021 | tipifarnib 0.014 | mubritinib -0.056

SFXN4 (UniProt Q6P4A7)
inactive: [1] 0.034 | crizotinib 0.021 | [2] 0.055 | [3] -0.017 | duvelisib 0.018 | gandotinib -0.049 | tozasertib -0.032 | [4] -0.002 | doramapimod -0.02 | ispinesib 0.032 | bafetinib -0.049 | [5] -0.111 | nilotinib -0.018 | [6] 0.148 | dasatinib 0.037 | [7] -0.151 | [8] -0.055 | [9] -0.019 | tipifarnib -0.03 | mubritinib -0.017

SGMS1 (UniProt Q86VZ5)
inactive: [1] 0.074 | crizotinib -0.057 | [2] 0.047 | [3] -0.049 | duvelisib 0.036 | gandotinib -0.029 | tozasertib 0.027 | [4] -0.031 | doramapimod -0.007 | ispinesib 0.029 | bafetinib -0.048 | [5] -0.002 | nilotinib -0.032 | [6] -0.012 | dasatinib 0.001 | [7] -0.014 | [8] -0.008 | [9] -0.034 | tipifarnib 0.025 | mubritinib -0.007

SF3A1 (UniProt Q15459)
inactive: [1] 0 | crizotinib 0.067 | [2] 0.024 | [3] 0.022 | duvelisib 0.006 | gandotinib 0.096 | tozasertib 0.091 | [4] 0.038 | doramapimod -0.008 | ispinesib 0.099 | bafetinib 0.003 | [5] 0.021 | nilotinib 0.002 | [6] -0.087 | dasatinib -0.002 | [7] 0.011 | [8] -0.055 | [9] 0.006 | tipifarnib 0.025 | mubritinib 0.045

SF3B4 (UniProt Q15427)
inactive: [1] -0.054 | crizotinib -0.006 | [2] -0.016 | [3] 0.07 | duvelisib -0.012 | gandotinib 0.055 | tozasertib 0.028 | [4] 0.001 | doramapimod 0.031 | ispinesib -0.038 | bafetinib 0.029 | [5] -0.052 | nilotinib 0.069 | [6] 0.004 | dasatinib 0.097 | [7] 0.042 | [8] -0.177 | [9] -0.04 | tipifarnib 0.068 | mubritinib 0.005

SERPINF1 (UniProt P36955)
inactive: [1] -0.008 | crizotinib 0.09 | [2] -0.161 | [3] 0.058 | duvelisib -0.024 | gandotinib 0.09 | tozasertib -0.005 | [4] 0.013 | doramapimod 0.047 | ispinesib 0.148 | bafetinib -0.083 | [5] -0.02 | nilotinib 0.065 | [6] -0.048 | dasatinib 0.074 | [7] 0.102 | [8] 0.118 | [9] -0.086 | tipifarnib 0.052 | mubritinib -0.11

SEMA4C (UniProt Q9C0C4)
inactive: [1] 0.002 | crizotinib -0.065 | [2] 0.04 | [3] 0.009 | duvelisib 0.008 | gandotinib 0.031 | tozasertib -0.082 | [4] -0.026 | doramapimod -0.158 | ispinesib -0.044 | bafetinib -0.051 | [5] -0.037 | nilotinib -0.007 | [6] -0.038 | dasatinib 0.026 | [7] -0.075 | [8] 0.026 | [9] 0.04 | tipifarnib 0.036 | mubritinib 0.057

SEPHS1 (UniProt P49903)
inactive: [1] -0.025 | crizotinib -0.004 | [2] 0.039 | [3] -0.039 | duvelisib 0.055 | gandotinib 0.038 | tozasertib -0.007 | [4] -0.009 | doramapimod 0 | ispinesib 0.039 | bafetinib -0.01 | [5] -0.008 | nilotinib 0.031 | [6] 0.016 | dasatinib -0.005 | [7] 0.006 | [8] 0.054 | [9] 0.018 | tipifarnib -0.052 | mubritinib 0.014

SERPINF2 (UniProt P08697)
inactive: [1] -0.092 | crizotinib 0.087 | [2] 0.121 | [3] 0.023 | duvelisib -0.133 | gandotinib -0.288 | tozasertib 0.071 | [4] -0.17 | doramapimod 0.091 | ispinesib -0.199 | bafetinib -0.433 | [5] -0.032 | nilotinib 0.021 | [6] 0.062 | dasatinib 0.041 | [7] 0.494 | [8] 0.162 | [9] -0.098 | tipifarnib 0.05 | mubritinib -0.509

SF3A3 (UniProt Q12874)
inactive: [1] 0 | crizotinib 0.118 | [2] -0.009 | [3] 0.055 | duvelisib 0.011 | gandotinib -0.013 | tozasertib 0.006 | [4] 0.136 | doramapimod -0.002 | ispinesib 0.119 | bafetinib 0.045 | [5] 0.008 | nilotinib -0.006 | [6] -0.225 | dasatinib -0.02 | [7] 0.026 | [8] -0.011 | [9] -0.021 | tipifarnib -0.015 | mubritinib 0.086

SF3B3 (UniProt Q15393)
inactive: [1] -0.001 | crizotinib -0.027 | [2] 0 | [3] -0.015 | duvelisib 0.03 | gandotinib -0.061 | tozasertib 0.059 | [4] -0.003 | doramapimod -0.005 | ispinesib 0.068 | bafetinib -0.019 | [5] 0 | nilotinib -0.001 | [6] 0.003 | dasatinib -0.003 | [7] 0.057 | [8] -0.062 | [9] -0.002 | tipifarnib -0.071 | mubritinib 0.002

SHTN1 isoform 3 (UniProt A0MZ66)
inactive: [1] 0.036 | crizotinib 0.009 | [2] -0.004 | [3] 0.053 | duvelisib 0.076 | gandotinib 0.02 | tozasertib 0.073 | [4] -0.008 | doramapimod 0.045 | ispinesib -0.04 | bafetinib -0.029 | [5] -0.004 | nilotinib -0.037 | [6] -0.036 | dasatinib 0.04 | [7] 0.033 | [8] -0.064 | [9] 0.03 | tipifarnib -0.01 | mubritinib 0

SF3B2 (UniProt Q13435)
inactive: [1] -0.056 | crizotinib 0.032 | [2] -0.12 | [3] 0.141 | duvelisib -0.039 | gandotinib 0.04 | tozasertib 0.063 | [4] 0.029 | doramapimod 0.033 | ispinesib -0.018 | bafetinib 0.087 | [5] -0.041 | nilotinib -0.046 | [6] -0.014 | dasatinib 0.046 | [7] 0.004 | [8] -0.088 | [9] -0.068 | tipifarnib 0.05 | mubritinib -0.034

Fetched one by one from the entries so far, 2 records:
SEMA4C (UniProt Q9C0C4)
inactive: [1] 0.002 | crizotinib -0.065 | [2] 0.04 | [3] 0.009 | duvelisib 0.008 | gandotinib 0.031 | tozasertib -0.082 | [4] -0.026 | doramapimod -0.158 | ispinesib -0.044 | bafetinib -0.051 | [5] -0.037 | nilotinib -0.007 | [6] -0.038 | dasatinib 0.026 | [7] -0.075 | [8] 0.026 | [9] 0.04 | tipifarnib 0.036 | mubritinib 0.057

SFXN4 (UniProt Q6P4A7)
inactive: [1] 0.034 | crizotinib 0.021 | [2] 0.055 | [3] -0.017 | duvelisib 0.018 | gandotinib -0.049 | tozasertib -0.032 | [4] -0.002 | doramapimod -0.02 | ispinesib 0.032 | bafetinib -0.049 | [5] -0.111 | nilotinib -0.018 | [6] 0.148 | dasatinib 0.037 | [7] -0.151 | [8] -0.055 | [9] -0.019 | tipifarnib -0.03 | mubritinib -0.017
